# Reference: patent US11066414B2, “Cot modulators and methods of use thereof” (Gilead Sciences, Inc., priority 2015, dated 2021)
# Sequences of proteins named here, by UniProt entry; tags and fusion partners are left off. Residues count along the entry.
# UniProt P41279, 30-397: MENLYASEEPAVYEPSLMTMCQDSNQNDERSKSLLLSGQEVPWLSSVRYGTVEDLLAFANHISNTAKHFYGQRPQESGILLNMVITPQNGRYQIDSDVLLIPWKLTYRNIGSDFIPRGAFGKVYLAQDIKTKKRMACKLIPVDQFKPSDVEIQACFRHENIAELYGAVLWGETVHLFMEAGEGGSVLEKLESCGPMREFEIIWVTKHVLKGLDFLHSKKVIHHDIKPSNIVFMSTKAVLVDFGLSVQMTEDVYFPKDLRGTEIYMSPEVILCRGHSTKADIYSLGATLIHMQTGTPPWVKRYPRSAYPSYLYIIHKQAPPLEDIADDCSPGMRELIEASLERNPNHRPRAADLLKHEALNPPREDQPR
# At least one structure is not confirmed: it was looked up by name or label, or the drawing left a doubt.
# Molecular target: Human Cot (Homo sapiens (Human), UniProt P41279)
# Assay: High Throughput Cot Biochemical Assay
# Conditions: first value of the cell IC50/EC50; recombinant human Cot catalytic domain, 400 μM ATP, TR-FRET
smiles,measurement,value
"Cn1cc(C(Nc2cc(Cl)c3ncc(C#N)c(Nc4ccc(F)c(Cl)c4)c3c2)c2cccnc2)nn1 (stereo not shown) [Example 395, 8-chloro-4-((3-chloro-4-fluoro-phenyl)amino)-6-(((1-methyl-1H-1,2,3-triazol-4-yl)(pyridin-3-yl)methyl)amino)quinoline-3-carbonitrile]",IC50/EC50 [nM]: IC50 (Cot),4/NA nM
